# Measurements as given in PubChem BioAssay (EPA / NIEHS).
# By UniProt entry, the sequences of proteins in these tests, tags left out.
# UniProt P03372, whole entry, looked up: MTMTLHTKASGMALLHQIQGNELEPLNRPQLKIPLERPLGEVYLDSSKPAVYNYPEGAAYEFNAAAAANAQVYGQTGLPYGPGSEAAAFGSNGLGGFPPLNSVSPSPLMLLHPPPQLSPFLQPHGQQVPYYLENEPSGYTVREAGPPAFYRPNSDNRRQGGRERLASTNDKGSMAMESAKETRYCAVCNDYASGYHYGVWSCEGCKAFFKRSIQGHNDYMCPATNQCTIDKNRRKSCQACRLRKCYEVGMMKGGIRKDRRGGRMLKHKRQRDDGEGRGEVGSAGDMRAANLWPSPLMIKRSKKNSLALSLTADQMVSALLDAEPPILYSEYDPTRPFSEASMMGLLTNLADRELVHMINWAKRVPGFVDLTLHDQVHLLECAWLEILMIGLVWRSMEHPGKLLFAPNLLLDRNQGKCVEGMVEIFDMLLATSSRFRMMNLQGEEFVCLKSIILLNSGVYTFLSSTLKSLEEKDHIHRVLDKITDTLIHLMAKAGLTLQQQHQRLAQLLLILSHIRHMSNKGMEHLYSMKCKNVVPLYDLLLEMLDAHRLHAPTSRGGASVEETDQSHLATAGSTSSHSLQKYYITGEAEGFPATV
# Inconclusive means that the source gave no clear call. Such entries were picked first, then a sample of the others. For some assays here: A potency beside an inconclusive call is a rough fit, not a confirmed value. The source made the active and inactive calls. Rule for the calls: active = hit-call score of the fitted dose curve at least 0.9, where 1 is the maximum; inconclusive = response in the unintended direction; inactive = score below 0.9.
# Columns and labels:
# [1] = CCTE_Deisenroth_AIME_96WELL_CTox_Active: Cytotoxicity Assessment (CTOX) in CCTE's 96-well Estrogen Receptor Transactivation Assay with AIME metabolic competence (metabolism positive), Deisenroth Lab (AID 2284028)
# How it was run: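 Cytotoxicity in VM7Luc4E2 breast cells after 24 h exposure to medium from a 2 h metabolic pre-incubation with induced rat hepatic S9 in alginate microspheres; fluorescent live-cell protease readout, 10-point series 0.002–200 uM, n=4.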
# [2] = CCTE_Deisenroth_AIME_96WELL_CTox_Inactive: Cytotoxicity Assessment (CTOX) in CCTE's 96-well Estrogen Receptor Transactivation Assay without AIME metabolic competence (metabolism negative), Deisenroth Lab (AID 2284029)
# How it was run: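 Metabolism-negative mode: alginate-water lids without rat S9, 2 h pre-incubation of 10-point series (0.002 - 200 uM). Conditioned medium on VM7Luc4E2 cells 24 h; loss of fluorescent live-cell protease signal marks cytotoxicity.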
# [3] = CCTE_Harrill_HTTr_CellCount_MCF7: CCTE's Cell Proliferation Assessment for the High-Throughput Transcriptomics (HTTr) Platform, Harrill Lab (AID 2284012);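 note: cells exposed to compound for six hours; intended direction is loss of nuclei count meaning fewer cells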
# How it was run: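 Cell count from high-content imaging of Hoechst-labeled nuclei serves as viability/growth readout. Chemicals were applied to MCF-7 cells in eight concentrations for six hours, with fitting in both directions relative to DMSO.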
# [4] = CCTE_Deisenroth_AIME_384WELL_CTox_Inactive: Cytotoxicity Assessment (CTOX) in CCTE's 384-well Estrogen Receptor Transactivation Assay without AIME metabolic competence (metabolism negative), Deisenroth Lab (AID 2284039);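 note: cell viability via live-cell protease substrate cleaved to fluorescent probe; cells exposed 24 h to medium preincubated 2 h with alginate-water beads without S9; loss of fluorescence signal means loss of viability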
# How it was run: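 VM7Luc4E2 human breast cells received conditioned medium from a 2 h incubation of chemical with alginate-water microspheres (no S9), then were exposed 24 h. Viability was read as protease-substrate cleavage to a fluorescent probe; loss of signal was fitted bidirectionally over 0.002–200 uM.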
# [5] = target: Estrogen receptor (Homo sapiens) (UniProt P03372); assay: CCTE_Deisenroth_AIME_384WELL_LUC_Inactive: CCTE's 384-well Estrogen Receptor Transactivation Assay without AIME metabolic competence (ERTA luciferase; metabolism negative), Deisenroth Lab (AID 2284038);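 note: hits raise estrogen receptor luciferase signal so potencies reflect agonists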
# How it was run: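 VM7Luc4E2 ER transactivation, luciferase bioluminescence after 24 h, using medium pre-incubated 2 h with S9-free alginate microspheres. Concentrations 0.002–200 uM; gain of signal fitted relative to 17beta-estradiol.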
# [6] = CCTE_Shafer_MEA_acute_AB: CCTE's Alamar Blue Assay for Cytotoxicity in the Neural Acute Assay, Shafer Lab (AID 2284069);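 note: active compounds lower the viability signal compared with DMSO wells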
# How it was run: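 Read-out: resazurin fluorescence (ex 544, em 590 nm) after CTB reagent at 1:6 dilution in fresh media. Cells: primary rat cortical neuron networks, DIV 13 or 15, chemically exposed on MEA plates; DMSO as negative control/baseline.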
# [7] = CCTE_Shafer_MEA_dev_active_electrodes_number: CCTE's Neural Network Formation Assay for Number of Active Electrodes, Shafer Lab (AID 2284040);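 note: potency for loss of active electrodes versus DMSO so lower counts are hits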
# How it was run: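 Counts electrodes per well firing at least 5 spikes/min, recorded on days 5, 7, 9 and 12 in rat cortical cultures dosed continuously from plating (treatment refreshed DIV 5, 9). Value is the area under the curve over recordings, fitted downward relative to DMSO.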
# [8] = CCTE_Shafer_MEA_dev_bursting_electrodes_number: CCTE's Neural Network Formation Assay for Number of Bursting Electrodes, Shafer Lab (AID 2284043);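 for AC50: potency is for loss of bursting electrodes relative to DMSO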
# How it was run: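 Rat cortical primary neurons, 48-well MEA, 16 electrodes/well; dosing DIV 0–12, re-dosed with full media change DIV 5, 9. Recordings DIV 5/7/9/12, AxIS adaptive spike detector; bursting electrode = ≥1 burst/2 min. AUC across days; loss of signal vs DMSO.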
# [9] = CCTE_Shafer_MEA_dev_LDH: CCTE's Lactate Dehydrogenase Assay for Cytotoxicity in the Neural Network Formation Assay, Shafer Lab (AID 2284068);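 note: exposure for twelve days from plating with re-dosing on DIV 5 and 9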
# How it was run: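 Rat cortical primary neurons, MEA culture; dosing day 0–12, full medium plus compound exchange DIV 5, 9. Read-out: LDH enzyme activity, spectrophotometric. DMSO = negative control/baseline; signal loss → cytotoxicity.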
# [10] = CCTE_Deisenroth_AIME_384WELL_CTox_Active: Cytotoxicity Assessment (CTOX) in CCTE's 384-well Estrogen Receptor Transactivation Assay with AIME metabolic competence (metabolism positive), Deisenroth Lab (AID 2284037);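 note: chemicals first conditioned 2 h by alginate-bound induced rat liver S9 before cells; activity means signal loss indicating cell death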
# How it was run: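 Chemicals pre-incubated 2 hours with alginate-immobilised phenobarbital/beta-naphthoflavone-induced male Sprague Dawley rat liver S9, then conditioned medium applied 24 hour to VM7Luc4E2 cells. Viability by fluorogenic protease substrate; 10-point series 0.002 - 200 uM.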
# [11] = target: Estrogen receptor (Homo sapiens) (UniProt P03372); assay: CCTE_Deisenroth_AIME_384WELL_LUC_Active: CCTE's 384-well Estrogen Receptor Transactivation Assay with AIME metabolic competence (ERTA luciferase; metabolism positive), Deisenroth Lab (AID 2284030)
# How it was run: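 Chemicals (10-point, 0.002-200 uM) were first incubated 2 hours with alginate-immobilized induced male Sprague Dawley rat liver S9. The conditioned medium was then applied to VM7Luc4E2 cells for 24 hours, with ER luciferase induction read by luminescence relative to 17beta-estradiol.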
compound,measurement,setting,value
c1ccc2c(c1)Cc1ccccc1-2,AC50,[1],inconclusive: 19.8 µM
same,AC50,[2],inconclusive: 100 µM
CC1(C)NC(=O)N(c2ccc([N+](=O)[O-])c(C(F)(F)F)c2)C1=O,AC50,[3],inconclusive: 50 µM
same,outcome,[4],inactive
O=C(OCc1ccccc1)c1ccccc1O,AC50,[3],inconclusive: 50 µM
same,AC50,[5],active: 46.4 µM
same,AC50,[4],inconclusive: 12.4 µM
O=C1CCCC1,AC50,[3],inconclusive: 0.236 µM
same,AC50,[4],inconclusive: 100 µM
CC(C)CCCCCCc1ccc(O)cc1,outcome,[3],inactive
same,outcome,[6],inactive
Oc1ccc(O)cc1,outcome,[1],inactive
same,outcome,[2],inactive
same,outcome,[6],inactive
Clc1ccccc1C(c1ccccc1)(c1ccccc1)n1ccnc1,AC50,[3],inconclusive: 50 µM
same,AC50,[7],inconclusive: 10 µM
same,AC50,[8],inconclusive: 10 µM
same,AC50,[9],inconclusive: 0.342 µM
c1ccc(Cc2ccccc2)cc1,AC50,[1],inconclusive: 100 µM
same,AC50,[2],inconclusive: 100 µM
O=C(O)/C=C/c1ccccc1,outcome,[3],inactive
same,outcome,[4],inactive
O=P(OC(CCl)CCl)(OC(CCl)CCl)OC(CCl)CCl,outcome,[3],inactive
same,outcome,[8],inactive
same,AC50,[6],inconclusive: 20 µM
same,outcome,[6],inactive
OC1CCC(C2CCCCC2)CC1 (stereo not drawn),outcome,[3],inactive
same,outcome,[6],inactive
Cc1ccc(C(C)C)cc1,outcome,[10],inactive
same,AC50,[4],inconclusive: 2.57 µM
Cc1ccc(N)cc1O,AC50,[10],inconclusive: 0.000246 µM
CCCCCCCCOC(=O)c1ccc(O)cc1,AC50,[10],inconclusive: 0.0002 µM
same,AC50,[4],inconclusive: 0.0002 µM
CCCCC(CC)CCC(CC(C)C)OS(=O)(=O)O (stereo not drawn),AC50,[10],inconclusive: 100 µM
COc1ccc(-c2coc3cc(O)cc(O)c3c2=O)cc1,AC50,[2],active: 156 µM
CC(C)c1cccc(C(C)C)c1,outcome,[11],inactive
same,outcome,[10],inactive
same,outcome,[4],inactive
OCC(CO)(CO)CO,AC50,[10],inconclusive: 2.76 µM
same,outcome,[4],inactive
C=CC(=C)CCC=C(C)C,AC50,[10],inconclusive: 0.0002 µM
same,AC50,[4],inconclusive: 0.0002 µM
Cc1cc(Cc2cc(C)cc(C(C)(C)C)c2O)c(O)c(C(C)(C)C)c1,AC50,[10],active: 43.1 µM
same,AC50,[5],inconclusive: 11.6 µM
same,AC50,[4],active: 41.8 µM
CCOC(=O)CC,outcome,[10],inactive
NC(CO)(CO)CO,AC50,[10],inconclusive: 0.000444 µM
same,outcome,[4],inactive
O=C(c1ccccc1)C1CCC1,AC50,[10],inconclusive: 0.000201 µM
same,AC50,[4],inconclusive: 0.00043 µM
C=C[C@@]1(C)CC(=O)[C@]2(O)[C@@]3(C)[C@@H](O)CCC(C)(C)[C@@H]3[C@H](O)[C@H](OC(C)=O)[C@@]2(C)O1,AC50,[10],active: 19.8 µM
same,outcome,[4],inactive
CCCCCCCCCCCCOCCOS(=O)(=O)O,AC50,[10],active: 147 µM
same,AC50,[5],inconclusive: 108 µM
same,AC50,[4],active: 107 µM
CCCCCCCCCCCC(=O)OCC(O)CO (stereo not drawn),AC50,[10],active: 0.0666 µM
CCCCCCC1CCC(=O)O1 (stereo not drawn),AC50,[10],inconclusive: 187 µM
same,AC50,[5],active: 0.00129 µM
CC(C)(C)N,AC50,[10],inconclusive: 0.0002 µM
C[C@@H]1C[C@H]2[C@@H]3CCC4=CC(=O)C=C[C@]4(C)[C@@]3(F)[C@@H](O)C[C@]2(C)[C@@]1(O)C(=O)COP(=O)(O)O,outcome,[10],inactive
same,AC50,[4],inconclusive: 100 µM
C[C@]12C[C@H](O)[C@H]3[C@@H](CCC4=CC(=O)CC[C@@]43C)[C@@H]1CC[C@@H]2C(=O)CO,AC50,[2],inconclusive: 0.0888 µM
same,AC50,[4],inconclusive: 100 µM
CCOc1ccc2[nH]cc(C(=O)NCc3ccccc3)c(=O)c2n1,AC50,[10],inconclusive: 0.000588 µM
same,outcome,[5],inactive
same,AC50,[4],inconclusive: 100 µM
same,AC50,[9],inconclusive: 10 µM
CCCCCCCCCCOS(=O)(=O)O,AC50,[10],active: 19.8 µM
CCCCCCCC[N+](C)(CCCCCCCC)CCCCCCCC,AC50,[10],active: 39.3 µM
same,AC50,[5],inconclusive: 4.97 µM
CCN(CC)CCNc1ccc(CNC=O)c2sc3ccc(OC)cc3c(=O)c12,AC50,[10],active: 130 µM
same,AC50,[4],active: 120 µM
CCNc1cccc(C)c1,AC50,[10],inconclusive: 19.8 µM
same,outcome,[4],inactive
Cc1ccc(C(C)c2ccc(C)c(C)c2)cc1C,AC50,[10],inconclusive: 0.0002 µM
same,AC50,[4],inconclusive: 0.0002 µM
CC=C1CC2C=CC1C2 (stereo not drawn),outcome,[10],inactive
C(=C(c1ccccc1)c1ccccc1)c1ccccc1,AC50,[10],inconclusive: 100 µM
same,AC50,[5],active: 9.48 µM
CC(C)CCCCCCOC(=O)C1CCCCC1C(=O)OCCCCCCC(C)C (stereo not drawn),outcome,[10],inactive
same,AC50,[4],inconclusive: 0.000622 µM
O=C(O)c1cccc(Oc2ccccc2)c1,outcome,[10],inactive
same,AC50,[4],active: 0.000708 µM

# Looked up one by one from the list above, five records:
compound,measurement,setting,value
O=C(O)c1cccc(Oc2ccccc2)c1,AC50,[4],active: 0.000708 µM
Cc1cc(Cc2cc(C)cc(C(C)(C)C)c2O)c(O)c(C(C)(C)C)c1,AC50,[5],inconclusive: 11.6 µM
Clc1ccccc1C(c1ccccc1)(c1ccccc1)n1ccnc1,AC50,[8],inconclusive: 10 µM
C[C@]12C[C@H](O)[C@H]3[C@@H](CCC4=CC(=O)CC[C@@]43C)[C@@H]1CC[C@@H]2C(=O)CO,AC50,[4],inconclusive: 100 µM
O=C(OCc1ccccc1)c1ccccc1O,AC50,[3],inconclusive: 50 µM
